The source of these data is paper PMC7836478.

The chains behind the UniProt entries cited, without tags or fusion partners.
UniProt P08151: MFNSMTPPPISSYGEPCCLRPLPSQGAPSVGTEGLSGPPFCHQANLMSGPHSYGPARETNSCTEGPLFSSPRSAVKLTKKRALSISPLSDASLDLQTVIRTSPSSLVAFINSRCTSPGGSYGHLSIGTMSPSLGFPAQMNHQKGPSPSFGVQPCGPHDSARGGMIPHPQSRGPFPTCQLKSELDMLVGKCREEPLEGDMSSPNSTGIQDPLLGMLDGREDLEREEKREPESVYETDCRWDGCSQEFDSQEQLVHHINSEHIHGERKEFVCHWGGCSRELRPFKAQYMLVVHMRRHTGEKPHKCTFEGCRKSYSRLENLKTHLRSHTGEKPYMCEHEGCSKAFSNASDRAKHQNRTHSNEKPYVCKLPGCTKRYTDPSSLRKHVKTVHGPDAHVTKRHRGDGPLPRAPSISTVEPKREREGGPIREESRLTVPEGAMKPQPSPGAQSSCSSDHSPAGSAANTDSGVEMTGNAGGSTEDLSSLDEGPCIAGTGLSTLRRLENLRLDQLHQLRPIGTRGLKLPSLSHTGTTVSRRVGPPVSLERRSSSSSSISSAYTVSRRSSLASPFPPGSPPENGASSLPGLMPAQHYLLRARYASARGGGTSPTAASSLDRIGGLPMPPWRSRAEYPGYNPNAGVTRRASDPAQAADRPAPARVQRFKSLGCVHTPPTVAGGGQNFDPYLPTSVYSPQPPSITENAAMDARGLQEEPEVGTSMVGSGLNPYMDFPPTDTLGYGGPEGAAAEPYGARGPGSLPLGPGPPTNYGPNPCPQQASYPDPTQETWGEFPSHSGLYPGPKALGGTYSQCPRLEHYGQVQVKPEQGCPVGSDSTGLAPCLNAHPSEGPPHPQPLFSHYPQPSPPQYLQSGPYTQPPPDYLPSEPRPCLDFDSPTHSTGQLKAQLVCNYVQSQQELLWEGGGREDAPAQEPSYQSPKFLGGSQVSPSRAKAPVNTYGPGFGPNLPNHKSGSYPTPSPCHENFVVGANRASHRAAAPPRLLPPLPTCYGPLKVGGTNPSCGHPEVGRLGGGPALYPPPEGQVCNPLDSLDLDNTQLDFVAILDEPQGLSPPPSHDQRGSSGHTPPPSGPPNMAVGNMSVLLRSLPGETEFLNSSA
UniProt P10070: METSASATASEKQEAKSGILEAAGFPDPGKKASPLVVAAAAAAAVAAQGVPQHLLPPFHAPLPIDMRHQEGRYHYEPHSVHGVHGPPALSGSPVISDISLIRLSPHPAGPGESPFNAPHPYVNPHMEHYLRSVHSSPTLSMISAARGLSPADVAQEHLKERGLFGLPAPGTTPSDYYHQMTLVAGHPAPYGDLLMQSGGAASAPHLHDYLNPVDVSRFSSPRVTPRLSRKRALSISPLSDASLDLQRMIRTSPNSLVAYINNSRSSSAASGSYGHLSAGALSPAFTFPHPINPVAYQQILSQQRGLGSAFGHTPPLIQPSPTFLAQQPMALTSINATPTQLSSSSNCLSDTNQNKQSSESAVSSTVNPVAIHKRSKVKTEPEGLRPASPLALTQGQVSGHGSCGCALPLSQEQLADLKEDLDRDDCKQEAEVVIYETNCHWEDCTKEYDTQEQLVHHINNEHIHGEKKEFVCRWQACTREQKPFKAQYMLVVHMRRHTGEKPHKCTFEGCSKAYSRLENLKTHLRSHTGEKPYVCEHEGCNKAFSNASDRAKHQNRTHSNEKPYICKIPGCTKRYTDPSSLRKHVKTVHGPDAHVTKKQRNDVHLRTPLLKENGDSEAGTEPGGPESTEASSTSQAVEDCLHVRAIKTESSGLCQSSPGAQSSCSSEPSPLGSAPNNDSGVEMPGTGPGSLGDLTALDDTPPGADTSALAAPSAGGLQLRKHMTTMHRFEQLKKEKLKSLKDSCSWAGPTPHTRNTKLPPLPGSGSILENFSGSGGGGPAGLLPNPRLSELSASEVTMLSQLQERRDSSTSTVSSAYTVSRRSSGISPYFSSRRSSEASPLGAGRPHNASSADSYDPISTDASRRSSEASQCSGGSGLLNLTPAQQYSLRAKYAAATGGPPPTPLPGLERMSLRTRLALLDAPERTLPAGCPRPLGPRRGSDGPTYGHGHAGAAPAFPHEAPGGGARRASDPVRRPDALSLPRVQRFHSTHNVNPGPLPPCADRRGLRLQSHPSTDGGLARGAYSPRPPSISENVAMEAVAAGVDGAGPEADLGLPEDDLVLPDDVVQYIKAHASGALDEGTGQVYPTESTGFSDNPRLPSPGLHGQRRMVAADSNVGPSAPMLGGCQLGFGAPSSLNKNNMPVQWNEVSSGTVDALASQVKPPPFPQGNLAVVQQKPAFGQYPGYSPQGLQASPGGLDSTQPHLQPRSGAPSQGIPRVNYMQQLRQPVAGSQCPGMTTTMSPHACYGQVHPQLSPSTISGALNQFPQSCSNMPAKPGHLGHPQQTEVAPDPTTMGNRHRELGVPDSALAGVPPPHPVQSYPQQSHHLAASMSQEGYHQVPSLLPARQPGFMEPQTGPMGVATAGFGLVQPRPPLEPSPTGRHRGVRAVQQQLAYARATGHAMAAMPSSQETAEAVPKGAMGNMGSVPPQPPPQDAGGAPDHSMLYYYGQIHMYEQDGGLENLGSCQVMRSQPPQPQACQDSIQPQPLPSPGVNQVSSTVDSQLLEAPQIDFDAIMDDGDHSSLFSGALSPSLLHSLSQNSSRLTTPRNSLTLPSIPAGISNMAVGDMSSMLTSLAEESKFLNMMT

The experiment addresses T1, suppressor of fused homolog (SUFU) (human (endogenous in 5637 and T24)) (UniProt Q9UMX1).
T1 sequence: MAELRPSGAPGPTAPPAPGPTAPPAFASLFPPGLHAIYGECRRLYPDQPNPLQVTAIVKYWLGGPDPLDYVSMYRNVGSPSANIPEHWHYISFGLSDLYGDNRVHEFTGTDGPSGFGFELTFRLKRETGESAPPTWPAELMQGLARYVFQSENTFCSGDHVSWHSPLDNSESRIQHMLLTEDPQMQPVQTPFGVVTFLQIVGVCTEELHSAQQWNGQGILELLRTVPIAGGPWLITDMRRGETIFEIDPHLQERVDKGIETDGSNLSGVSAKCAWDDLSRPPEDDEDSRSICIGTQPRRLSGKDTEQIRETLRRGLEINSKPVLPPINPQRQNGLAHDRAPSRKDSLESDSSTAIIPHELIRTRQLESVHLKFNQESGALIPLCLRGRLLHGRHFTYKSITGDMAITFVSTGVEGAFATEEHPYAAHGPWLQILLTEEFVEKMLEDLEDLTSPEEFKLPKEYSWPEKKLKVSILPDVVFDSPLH
Description: co-IP; immunoprecipitation of endogenous SUFU from lysates of 5637 and T24 cells (Thermo Scientific co-immunoprecipitation kit), western blot of Gli1 and Gli2; nonspecific rabbit IgG as negative control; also from cells transfected with siROC1 or pROC1. A general note: In western blotting, separated proteins are transferred to a membrane and probed.

Results are given in words; binding and its absence hold for the method and conditions named. In cells and extracts the contact can be indirect. Some results given as binding are weak or reduced against the parent protein; the word gives no strength. Sequences can lack the tags named with a protein.

With Gli1 (from UniProt P08151 1-1106), the binding entry is “binds”.

With Gli2 (from UniProt P10070 1-1586), the binding result was “binds”.
